Results as given in the supplement of paper PMC12889115.
The other results are listed elsewhere or left out. Values are raw readings; no control value is given beside them.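 In the initial screen, polymyxin B was used at a concentration that permeabilizes Salmonella's outer membrane but not its inner membrane. Maximum growth was set by DMSO wells with or without polymyxin B. Since plates varied, data were ranked per plate, and compounds giving the lowest OD600 advanced as hits.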

Tested on: Salmonella enterica serovar Typhimurium SL1344
Experiment: bacterial growth OD600 after 18 h with compound and polymyxin B; higher = more bacterial growth (less inhibition)
Conditions: 50 µM, Mueller-Hinton broth

SMILES	bacterial growth OD600 (polymyxin B 0.75 µg/mL)	bacterial growth OD600 (polymyxin B 1 µg/mL)
Cc1nc(C(=O)NCC2Cc3cccc(-c4ncccn4)c3O2)cs1 (stereo not given)	0.854	–
COCC1CCCN(C(=O)c2ccc(NC3CCC3)nc2)C1 (stereo not given)	–	0.941
CCOC(=O)CC1CCCCN1Cc1nc(-c2ccc(C)cc2)oc1C (stereo not given)	–	0.823
COCc1noc(-c2ccc(N(C)CCC3CCCCO3)nc2)n1 (stereo not given)	–	0.976
COc1cccc(CCC2CCCN(C(=O)c3cscn3)C2)c1 (stereo not given)	0.001	–
Cc1cnc(C)c(N2CCN(C(=O)C3CCC(=O)N(C4CCCC4)C3)CC2)n1 (stereo not given)	–	0.842
Cc1ccc(C(=O)N2CCC(C3(c4ccccn4)NC(=O)N(CCc4cccs4)C3=O)CC2)cc1 (stereo not given)	0.773	–
CCn1c(CN2CCN(Cc3cc(OC)cc(OC)c3)C(CCO)C2)nc2ccccc21 (stereo not given)	–	0.933
Cc1ncc2c(c1CNC(=O)CSc1ccccc1)CCN(C(=O)c1ccc3c(c1)OCCO3)C2	0.777	–
CC(Cc1ccsc1)NC(=O)c1cc(Cn2ccnc2C(C)C)[nH]n1 (stereo not given)	0.846	–
CCOC(=O)N1CCN(C(=O)c2ccc(N3CCC(NCc4cnc5ccccn45)CC3)cc2)CC1	0.99	–
COC(=O)CCCC(=O)N1CCCC(CCC(=O)Nc2cc(OC)cc(OC)c2)C1 (stereo not given)	–	0.882
O=C(CCn1cncn1)NCc1cccnc1Oc1ccccc1F	0.855	–
Cc1cc2c(c(-c3ccccn3)c1)OC(CNC(=O)c1ccoc1)C2 (stereo not given)	0.848	–
COc1ccccc1N1CCN(CC2(O)CCCN(CC(C)(C)C)C2=O)CC1 (stereo not given)	–	0.91
CSc1ccccc1OCc1cc(C(=O)NCCN2CCCCC2CO)no1 (stereo not given)	0.784	–
Cn1c(C2CCC2)nc2cc(C(=O)N3CCN(c4cnccn4)CC3)cc(NC(=O)C3CCCO3)c21 (stereo not given)	0.863	–
COC(=O)C1CCCCN1C(=O)c1c(OC)cc(=O)n2c1CCN(Cc1cc(F)ccc1F)CC2 (stereo not given)	0.792	–
COc1cccc(CCC2CCCN(C(=O)c3cnc(C)cn3)C2)c1 (stereo not given)	–	0.48
COCCN(Cc1nc(-c2ccc(F)cc2)oc1C)C(C)C	–	0.86

One compound at a time, as listed above. Order of values: bacterial growth OD600 (polymyxin B 0.75 µg/mL)	bacterial growth OD600 (polymyxin B 1 µg/mL)
CSc1ccccc1OCc1cc(C(=O)NCCN2CCCCC2CO)no1 (stereo not given) is entered as 0.784	–
COC(=O)CCCC(=O)N1CCCC(CCC(=O)Nc2cc(OC)cc(OC)c2)C1 (stereo not given) is entered as –	0.882
